Some of the results follow. The main result of the screen is listed elsewhere. These columns were measured beside it and carry no call. Most of these compounds were active or inconclusive in the main read-out, so they are no random draw. The note in brackets gives the kind of curve behind each potency; many fits are weak.
Assay: Cell signaling CRE-BLA (Fsk stim)
Settings: CHO CRE-bla reporter (cAMP response element driving beta-lactamase), forskolin EC10, beta-lactamase ratio; measured here: 460 nm blue channel
Procedure, shortened: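 CRE-bla CHO cells stimulated with EC10 NKH 477 (water-soluble forskolin) and compound titrations, 3 h at 37C; beta-lactamase read with CCF4 after 2 h at room temperature. Activity from 460/530 nm emission ratio, AC50 values for positive or negative modulation.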

SMILES	AC50
Cc1ccc(CNc2oc(-c3ccco3)nc2C#N)cc1	12.6 µM [rising, partial curve]
COc1ccc(CNc2ncncc2-c2cccnc2)c(OC)c1	12.6 µM [rising, partial curve]
Cc1cnc(CNc2nc(-c3ccccc3C(F)(F)F)nc3ccccc23)cn1	12.6 µM [rising, partial curve]
COC(=O)CSc1nc2ccccc2nc1SCC(=O)OC	12.6 µM [rising, single point]
Cc1c(NC(=O)OCCSc2nc(N(C)C)nc(N(C)C)n2)sc(=S)n1C	10 µM [rising, partial curve]
O=c1cc(CO)oc(C(Nc2ccccn2)c2ccc(C(F)(F)F)cc2)c1O (stereo not drawn)	5.01 µM [falling, partial curve, poor fit]
Clc1ccc(Cn2ncc3c(N4CCCC4)ncnc32)cc1	10 µM [rising, partial curve]
Cc1ccc(C)n1NC(=O)c1cccs1	31.6 µM [falling, single point]
CCOC(=O)N1CCC(NC(=O)c2cc3c(-c4cccc(OC)c4)nn(C)c3s2)CC1	10 µM [rising, partial curve]
CCOC(=O)CSc1nc2c(c(=O)n(C)c(=O)n2C)n1Cc1ccccc1F	15.8 µM [rising, partial curve]
COc1ccc(-c2ccc(-c3noc(-c4ccccc4)n3)c(OC)n2)cc1	15.8 µM [rising, single point]
Cc1cc(C)nc(SCC(=O)Nc2ccc(Br)cn2)n1	10 µM [rising, single point]
CCC(c1nc2ccccc2c(=O)n1CCCn1ccnc1)N1C(=O)c2ccccc2C1=O (stereo not drawn)	5.01 µM [rising, partial curve]
CCOc1ccc(CCNc2cc(C)nc3ncnn23)cc1OCC	15.8 µM [rising, single point]
Cc1cc(C(F)(F)F)nn1CC(=O)Nc1cccnc1	0.0794 µM [falling, partial curve, poor fit]
O=C(Nc1cc(N2CCOCC2)ncn1)Nc1cccc2ccccc12	0.794 µM [rising, full curve]
O=C(CN1CCOCC1)N1CCN(S(=O)(=O)c2ccccc2)C1c1ccccc1 (stereo not drawn)	0.501 µM [falling, full curve]
NC1=NC(c2ccccc2Cl)n2c(nc3ccccc32)N1 (stereo not drawn)	7.94 µM [falling, partial curve]
COc1nc(NCC(C)C)nc(Oc2ccc(OCc3ccccc3)nn2)n1	10 µM [rising, single point]
O=c1c2ccccc2nnn1CSc1ncnc2ccccc12	0.398 µM [falling, full curve]
NC(=O)CSc1cn(CCNC(=O)c2cccs2)c2ccccc12	10 µM [rising, partial curve]
c1cncc(CNc2nc(-c3ccc4c(c3)OCO4)nc3ccccc23)c1	15.8 µM [rising, partial curve]
COC(=O)c1cc(COC(=O)c2ccc(OC)c(S(=O)(=O)N3CCCC3)c2)oc1C	10 µM [rising, single point]

Two records picked at random from those above, as already listed:
SMILES	AC50
Cc1cnc(CNc2nc(-c3ccccc3C(F)(F)F)nc3ccccc23)cn1	12.6 µM [rising, partial curve]
Clc1ccc(Cn2ncc3c(N4CCCC4)ncnc32)cc1	10 µM [rising, partial curve]

(cont.)

SMILES	AC50
COc1cc(Br)cc(CN2CCN(C/C=C/c3ccccc3)CC2)c1O	10 µM [falling, partial curve]
CSc1nc2oc3c(c2c2nncn12)CC(C)(C)SC3	3.98 µM [rising, partial curve]
Cc1cc(C)c2nc(C(F)(F)F)nc(N3CC(C)OC(C)C3)c2c1 (stereo not drawn)	0.00398 µM [falling, full curve, poor fit]
Cc1ccc(S(=O)(=O)NCc2ccc(C(=O)NCCCN3CCN(C)CC3)cc2)cc1	10 µM [falling, single point]
O=C(Cn1cnnn1)Nc1ccccc1Cc1ccccc1	5.01 µM [falling, single point]
Cc1ccc(NC2=NC(C(=O)Nc3ccc(C)c(C)c3)CC(=O)N2)cc1 (stereo not drawn)	6.31 µM [falling, full curve, poor fit]
COc1ccc(-c2onc3ccc(Cl)cc23)cc1OC	7.94 µM [rising, partial curve]
O=C(NCC1CCS(=O)(=O)C1)NCC1CCS(=O)(=O)C1 (stereo not drawn)	2.51 µM [falling, full curve, poor fit]
Cn1c(=O)c2c(nc(N3CCCCC3)n2CCCNC2=NCCCC2)n(C)c1=O	10 µM [falling, partial curve]
COc1ccccc1NC(=O)CN1CCC(n2c(C)nc3cc(F)ccc32)CC1	2 µM [rising, full curve]
C=CCn1c(C)cc(C(=O)CSc2nnc(NCc3ccccc3)s2)c1C	20 µM [rising, single point]
COc1ccccc1N1CCN(C(c2cc3ccc(C)cc3[nH]c2=O)c2nnnn2C2CCCC2)CC1 (stereo not drawn)	31.6 µM [falling, partial curve]
O=C(CSc1nnc(-c2cccnc2)n1Cc1ccco1)c1ccccc1	10 µM [rising, single point]
COc1ccccc1-c1ccc2ncnc(NCCN3CCOCC3)c2c1	3.98 µM [rising, partial curve]
CCc1ccc2[nH]c(=O)c(CN(CCN(C)C)C(=O)Nc3ccccc3)cc2c1	3.16 µM [falling, full curve]
COc1cc(C2Nc3cccc4cccc(c34)N2)cc(OC)c1O	10 µM [falling, partial curve]
CCn1c(SCc2nc3ccccc3nc2C)nnc1-c1cccs1	2.51 µM [rising, partial curve]
Cc1ccc(-c2nc3cccnc3s2)cc1NC(=O)c1ccco1	25.1 µM [falling, partial curve, poor fit]
CN(Cc1ccccc1)c1nc2c(c(=O)[nH]c(=O)n2C)n1CCCSc1ncccn1	10 µM [rising, single point]
O=S1(=O)N=C(N2CCc3ccccc3C2)c2ccccc21	12.6 µM [falling, partial curve]
COc1cccc(Cn2c(=O)c(-c3ccc(Cl)cc3)nc3cnc(N(C)C)nc32)c1	0.398 µM [rising, full curve]
CC1CN(c2nc3ccccn3c(=O)c2/C=C(\C#N)S(=O)(=O)c2ccccc2)CC(C)O1 (stereo not drawn)	20 µM [rising, single point]
O=C(NC1(C(F)(F)F)Oc2ccccc2O1)N1CCCC1	2.51 µM [falling, partial curve, poor fit]

Two entries from above, reformatted.
COc1ccccc1NC(=O)CN1CCC(n2c(C)nc3cc(F)ccc32)CC1
  AC50: 2 µM [rising, full curve]
C=CCn1c(C)cc(C(=O)CSc2nnc(NCc3ccccc3)s2)c1C
  AC50: 20 µM [rising, single point]

Additional structures.

SMILES	AC50
CCOC(=O)c1cc(-c2ccc3c(c2)OCCO3)nc2c1c(C)nn2CCC#N	7.94 µM [rising, partial curve]
CS(=O)(=O)c1ccc2nc(NC(=O)Oc3ccccc3)sc2c1	25.1 µM [rising, single point]
COc1ccccc1CNc1cc(-c2cccc(C#N)c2)ncn1	5.01 µM [rising, full curve]
Cc1ccc(-c2cc(C(F)F)n3ncc(C(=O)N4CCN5CCCC5C4)c3n2)cc1 (stereo not drawn)	25.1 µM [rising, single point]
CC(C)(C)NC(=O)CN(C(=O)CS(=O)CC(=O)Nc1ccc(F)cc1)c1ccc(Cl)cc1 (stereo not drawn)	10 µM [falling, partial curve]
O=C(COc1ccc(S(=O)(=O)N2CCCC2)cc1Cl)Nc1ccc2c(c1)OCO2	0.00398 µM [falling, full curve, poor fit]
Cc1ccc2c(CSc3nc4ccccc4c(=O)n3CCCO)cc(=O)oc2c1	3.98 µM [rising, partial curve]
CCCC(=O)Nc1cc(-c2cn3cccnc3n2)ccc1OC	0.251 µM [falling, partial curve]
CCOC(=O)C1=C(C)NC(=O)CC1c1cc2c(cc1Br)OCO2 (stereo not drawn)	10 µM [rising, single point]
COc1ccc(-c2ccc(-c3nnc(-c4cc(OC)ccc4OC)o3)cc2)cc1	0.501 µM [rising, single point]
O=C(O)C1Cc2c([nH]c3ccccc23)C(c2ccc3c(c2)OCO3)N1 (stereo not drawn)	0.00316 µM [falling, full curve, poor fit]
CC1=CC2(C#N)C3(N=C(N)C2(C#N)C(c2ccccc2)N1)OCCO3 (stereo not drawn)	10 µM [falling, partial curve]
COc1ccccc1C(=O)Nc1ccc(S(=O)(=O)N2CCOCC2)cc1	7.94 µM [rising, partial curve]
COc1ccc2c3c(c(=O)oc2c1OCC(=O)C(C)(C)C)CCCC3	12.6 µM [rising, partial curve]
O=C1c2ccccc2-c2ccc(C(=O)N3CCOCC3)cc21	10 µM [rising, partial curve]
Cc1ccc(N2C(=O)C(Cl)=C(Nc3c(C)n(C)n(-c4ccccc4)c3=O)C2=O)cc1	5.01 µM [falling, single point]
CCOC(=O)c1ncn2c1C(=O)OC2(C)C	20 µM [falling, partial curve]
CCOC(=O)c1[nH]c2ccc(OC)cc2c1NC(=O)CN1CCC2(CC1)OCCO2	10 µM [rising, partial curve]
Cc1noc(C)c1-c1nccc(NCc2ccccc2)n1	3.16 µM [rising, full curve]
Nc1nncn1C(=O)c1cccs1	7.94 µM [falling, partial curve, poor fit]
COc1ccc(C2C=C(c3ccc(Br)s3)Nc3ncnn32)cc1OC (stereo not drawn)	10 µM [rising, partial curve]
Cc1ccc(C)c(N2CCN(C(=O)c3cc(S(=O)(=O)N4CCOCC4)ccc3F)CC2)c1	10 µM [rising, single point]
